These are yes or no findings as the source states them, for the method shown. Binding seen in cells or lysates may run through a third protein. Where a sequence is shown, tags or fusion partners need not be part of it.
Target: Full length GST-FliI (C. pneumoniae)
Experiment: pull-down; only the target purified

B1: His-Cpn0706 (protein, UniProt Q9Z7J9 1-168)
chain: MAKYPLEPVLAIKKDRVDRAEKVVKEKRRLLEIEQEKLREKEAERDKVKNHYMQKIQQLRDLLDEGTTSDAVLQIKSYIKVVAVQLSEEEEKVNKQKEVVLAASKELEKAEVNLAKRRKEEEKTRLHKEEWMKEALKEEARAEEKEQDEMGQLLFQLRQKKKRESGGS
- binding: no binding

Reference: publication PMC2830194
